# From patent EP3878446A1, “HSD11B1 INHIBITORS FOR USE IN IMMUNOTHERAPY AND USES THEREOF” (UNIVERSITE DE GENEVE, priority 2020, dated 2021)
# System: human peripheral blood mononuclear cell (PBMC)
# Test: antigen recall assay (IFNγ secretion by CMV-stimulated PBMC, ELISA)
# Type: cell-based
# Conditions: co-treatment: 1 µM HSD11B1 inhibitor + 1 µg/ml anti PD-1 (G4K), compared to anti-PD-1 or HSD11B1 inhibitor alone, 1 µg/ml CMV antigen, 50 ng/ml cortisone, 6 days, Fig. 1
# From the text: Response to immunotherapy rely on critical biological steps including antigen presentation and T cell activation. Therefore, the therapeutic potential of combining immunotherapy with HSD11B1 inhibition was investigated in an antigen recall assay as described below. Antigen recall assay is the gold standard in vitro method to assess the bioactivity of immune checkpoint inhibitors because it measures at the same time the potential of antigen presenting cells to activate T cell and the actual T cell activation, taking into account thereby the two critical mechanisms required for an optimal response to immunotherapy. The level of IFNγ secreted in this human immune cell-based assay is considered as a good indicator of the T cells activation to immunomodulatory molecules. Cryopreserved human peripheral blood mononuclear cell (PBMC) isolated from cytomegalovirus (CMV) positive heathy donors were thawed in a 37°C water bath and seeded in round bottom 96 well plates at 2 X 10^5 cells/well in 150 µL final volume of RPMI media supplemented with 10% fetal bovin serum, 1% non-essential amino acids, 0.01M Hepes, 1% Penicilin/Streptomycin, 1% L-glutamine and 50 ng/ml cortisone). […]
smiles,measurement,value
"N#Cc1ccc(-c2ccc(S(=O)(=O)Nc3cccc(N)n3)cc2)cc1 [PF-915275, N-(6-aminopyridin-2-yl)-4-(4-cyanophenyl) benzene sulfonamide]",level on IFNγ,significantly increased
